In assay [1] the target is 3HA-3FLAG-CIAO3, wildtype (human) (UniProt Q9H6Q4). In words: affinity purification with mass spectrometry; anti-HA beads on lysates of Flp-In 293 cells expressing the 3HA-3FLAG-tagged bait (NUBP2, wildtype or mutant CIAO3); targeted proteomics assay (parallel reaction monitoring) of CIA components and substrates; CIAO3 purifications normalised to CIAO3; wildtype CIAO3 cells also treated with FAC or DFO for 8 h.

Sequences of proteins named here, by UniProt entry; tags and fusion partners are left off. A change or cut given only in a name is not applied to a line headed by its entry.
UniProt Q9H6Q4: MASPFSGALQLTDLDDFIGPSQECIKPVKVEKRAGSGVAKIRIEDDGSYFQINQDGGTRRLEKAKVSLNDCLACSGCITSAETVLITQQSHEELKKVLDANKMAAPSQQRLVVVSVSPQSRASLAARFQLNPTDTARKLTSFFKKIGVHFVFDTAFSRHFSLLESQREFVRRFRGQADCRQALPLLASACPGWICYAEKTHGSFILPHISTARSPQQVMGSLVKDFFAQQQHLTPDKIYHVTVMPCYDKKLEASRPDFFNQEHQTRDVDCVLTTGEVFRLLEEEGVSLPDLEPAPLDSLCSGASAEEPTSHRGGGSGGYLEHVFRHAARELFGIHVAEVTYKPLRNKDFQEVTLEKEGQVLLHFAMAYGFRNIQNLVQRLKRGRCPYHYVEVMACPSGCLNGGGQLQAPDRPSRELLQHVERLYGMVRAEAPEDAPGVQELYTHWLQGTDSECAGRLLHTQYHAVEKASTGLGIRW

Assay [2] deals with T1, 3HA-3FLAG-tagged NUBP2 (nucleotide-binding protein 2) (human) (UniProt Q9Y5Y2).
T1 sequence: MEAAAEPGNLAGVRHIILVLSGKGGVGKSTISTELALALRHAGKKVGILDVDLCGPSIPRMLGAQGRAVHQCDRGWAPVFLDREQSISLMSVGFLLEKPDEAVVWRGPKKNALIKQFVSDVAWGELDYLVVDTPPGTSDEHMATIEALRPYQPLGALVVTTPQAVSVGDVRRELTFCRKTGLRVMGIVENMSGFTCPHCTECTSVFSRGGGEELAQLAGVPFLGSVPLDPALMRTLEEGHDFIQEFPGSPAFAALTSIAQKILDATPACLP
Described as above.

Assay [3] deals with 3HA-3FLAG-CIAO3, wildtype (human) (UniProt Q9H6Q4). In words: affinity purification with mass spectrometry; anti-HA beads on lysates of Flp-In 293 cells expressing the 3HA-3FLAG-tagged bait (NUBP2 or CIAO3); 100 mM Tris-HCl pH 8.0, 150 mM NaCl, 5% glycerol, 0.1% NP-40, 4 °C; glycine elution; shotgun (data-dependent) proteomics, spectral counts or MS1 label-free quantification; CIAO3 cells treated with 100 μg/ml FAC or 100 μM DFO for 8 h.

Assay [4] has as its target T1, 3HA-3FLAG-tagged NUBP2 (nucleotide-binding protein 2) (human). Described as above.
Assay [5] concerns the target 3HA-3FLAG-CIAO3-C190S/C395S (human) (UniProt Q9H6Q4). In words: affinity purification with mass spectrometry; anti-HA beads on lysates of Flp-In 293 cells expressing the 3HA-3FLAG-tagged bait (NUBP2, wildtype or mutant CIAO3); targeted proteomics assay (parallel reaction monitoring) of CIA components and substrates; CIAO3 purifications normalised to CIAO3; wildtype CIAO3 cells also treated with FAC or DFO for 8 h.

Assay [6] deals with 3HA-3FLAG-CIAO3-C71S/C190S/C395S (human) (UniProt Q9H6Q4). The description is as above.

Results are given in words; binding and its absence hold for the method and conditions named. Binding seen in cells or lysates may run through a third protein. These calls come from enrichment with a bait or labelling near it, and not all partners need be listed. For some assays here: Where a sequence is shown, tags or fusion partners need not be part of it.

B1: nucleotide-binding protein 1 (NUBP1) (protein, UniProt P53384 1-320)
chain: MEEVPHDCPGADSAQAGRGASCQGCPNQRLCASGAGATPDTAIEEIKEKMKTVKHKILVLSGKGGVGKSTFSAHLAHGLAEDENTQIALLDIDICGPSIPKIMGLEGEQVHQSGSGWSPVYVEDNLGVMSVGFLLSSPDDAVIWRGPKKNGMIKQFLRDVDWGEVDYLIVDTPPGTSDEHLSVVRYLATAHIDGAVIITTPQEVSLQDVRKEINFCRKVKLPIIGVVENMSGFICPKCKKESQIFPPTTGGAELMCQDLEVPLLGRVPLDPLIGKNCDKGQSFFIDAPDSPATLAYRSIIQRIQEFCNLHQSKEENLISS
In the case of B1, the binding result in assay [1], in assay [2], in assay [3] and in assay [4] was “binds” throughout.

B2: CDKAL1 (protein, UniProt Q5VV42 1-579)
chain: MPSASCDTLLDDIEDIVSQEDSKPQDRHFVRKDVVPKVRRRNTQKYLQEEENSPPSDSTIPGIQKIWIRTWGCSHNNSDGEYMAGQLAAYGYKITENASDADLWLLNSCTVKNPAEDHFRNSIKKAQEENKKIVLAGCVPQAQPRQDYLKGLSIIGVQQIDRVVEVVEETIKGHSVRLLGQKKDNGRRLGGARLDLPKIRKNPLIEIISINTGCLNACTYCKTKHARGNLASYPIDELVDRAKQSFQEGVCEIWLTSEDTGAYGRDIGTNLPTLLWKLVEVIPEGAMLRLGMTNPPYILEHLEEMAKILNHPRVYAFLHIPVQSASDSVLMEMKREYCVADFKRVVDFLKEKVPGITIATDIICGFPGETDQDFQETVKLVEEYKFPSLFINQFYPRPGTPAAKMEQVPAQVKKQRTKDLSRVFHSYSPYDHKIGERQQVLVTEESFDSKFYVAHNQFYEQVLVPKNPAFMGKMVEVDIYESGKHFMKGQPVSDAKVYTPSISKPLAKGEVSGLTKDFRNGLGNQLSSGSHTSAASQCDSASSRMVLPMPRLHQDCALRMSVGLALLGLLFAFFVKVYN
As for B2, the binding entry in assay [2], in assay [5], in assay [6] and in assay [4] was “binds” each time.

B3: DNA2 (protein, UniProt P51530 1-1060)
chain: MEQLNELELLMEKSFWEEAELPAELFQKKVVASFPRTVLSTGMDNRYLVLAVNTVQNKEGNCEKRLVITASQSLENKELCILRNDWCSVPVEPGDIIHLEGDCTSDTWIIDKDFGYLILYPDMLISGTSIASSIRCMRRAVLSETFRSSDPATRQMLIGTVLHEVFQKAINNSFAPEKLQELAFQTIQEIRHLKEMYRLNLSQDEIKQEVEDYLPSFCKWAGDFMHKNTSTDFPQMQLSLPSDNSKDNSTCNIEVVKPMDIEESIWSPRFGLKGKIDVTVGVKIHRGYKTKYKIMPLELKTGKESNSIEHRSQVVLYTLLSQERRADPEAGLLLYLKTGQMYPVPANHLDKRELLKLRNQMAFSLFHRISKSATRQKTQLASLPQIIEEEKTCKYCSQIGNCALYSRAVEQQMDCSSVPIVMLPKIEEETQHLKQTHLEYFSLWCLMLTLESQSKDNKKNHQNIWLMPASEMEKSGSCIGNLIRMEHVKIVCDGQYLHNFQCKHGAIPVTNLMAGDRVIVSGEERSLFALSRGYVKEINMTTVTCLLDRNLSVLPESTLFRLDQEEKNCDIDTPLGNLSKLMENTFVSKKLRDLIIDFREPQFISYLSSVLPHDAKDTVACILKGLNKPQRQAMKKVLLSKDYTLIVGMPGTGKTTTICTLVRILYACGFSVLLTSYTHSAVDNILLKLAKFKIGFLRLGQIQKVHPAIQQFTEQEICRSKSIKSLALLEELYNSQLIVATTCMGINHPIFSRKIFDFCIVDEASQISQPICLGPLFFSRRFVLVGDHQQLPPLVLNREARALGMSESLFKRLEQNKSAVVQLTVQYRMNSKIMSLSNKLTYEGKLECGSDKVANAVINLRHFKDVKLELEFYADYSDNPWLMGVFEPNNPVCFLNTDKVPAPEQVEKGGVSNVTEAKLIVFLTSIFVKAGCSPSDIGIIAPYRQQLKIINDLLARSIGMVEVNTVDKYQGRDKSIVLVSFVRSNKDGTVGELLKDWRRLNVAITRAKHKLILLGCVPSLNCYPPLEKLLNHLNSEKLIIDLPSREHESLCHILGDFQRE
B3: the binding result in assay [2] was “binds”.

B4: nucleotide-binding protein 2 (NUBP2), endogenous (protein, UniProt Q9Y5Y2 1-271)
chain: T1 sequence
Consider B4, for which the binding result in assay [1] and in assay [3] was “binds” in each case.

These data come from paper PMC9243173.
